Experimental findings from article doi:10.1101/2022.10.21.513235 are described below.

Chains of the proteins cited; added tags and fusions are not shown. Lines headed by an entry give the natural chain unless they say otherwise; changes in a name come on top. A line that says so, or that is headed by a name, gives the form on record, which may keep a tag or linker.
UniProt Q9UH17: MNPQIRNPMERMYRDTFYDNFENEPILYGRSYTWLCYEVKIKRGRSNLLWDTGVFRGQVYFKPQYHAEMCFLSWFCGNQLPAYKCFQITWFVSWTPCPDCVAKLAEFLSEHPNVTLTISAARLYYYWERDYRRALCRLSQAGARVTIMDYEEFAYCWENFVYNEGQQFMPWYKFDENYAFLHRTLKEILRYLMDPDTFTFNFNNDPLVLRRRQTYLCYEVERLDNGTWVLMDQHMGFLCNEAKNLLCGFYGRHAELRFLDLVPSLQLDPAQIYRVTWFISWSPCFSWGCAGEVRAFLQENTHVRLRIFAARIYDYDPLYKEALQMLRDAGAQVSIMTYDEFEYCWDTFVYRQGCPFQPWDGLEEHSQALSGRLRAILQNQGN
TDRD3 isoform 1 (Q9H7E2-3, form named): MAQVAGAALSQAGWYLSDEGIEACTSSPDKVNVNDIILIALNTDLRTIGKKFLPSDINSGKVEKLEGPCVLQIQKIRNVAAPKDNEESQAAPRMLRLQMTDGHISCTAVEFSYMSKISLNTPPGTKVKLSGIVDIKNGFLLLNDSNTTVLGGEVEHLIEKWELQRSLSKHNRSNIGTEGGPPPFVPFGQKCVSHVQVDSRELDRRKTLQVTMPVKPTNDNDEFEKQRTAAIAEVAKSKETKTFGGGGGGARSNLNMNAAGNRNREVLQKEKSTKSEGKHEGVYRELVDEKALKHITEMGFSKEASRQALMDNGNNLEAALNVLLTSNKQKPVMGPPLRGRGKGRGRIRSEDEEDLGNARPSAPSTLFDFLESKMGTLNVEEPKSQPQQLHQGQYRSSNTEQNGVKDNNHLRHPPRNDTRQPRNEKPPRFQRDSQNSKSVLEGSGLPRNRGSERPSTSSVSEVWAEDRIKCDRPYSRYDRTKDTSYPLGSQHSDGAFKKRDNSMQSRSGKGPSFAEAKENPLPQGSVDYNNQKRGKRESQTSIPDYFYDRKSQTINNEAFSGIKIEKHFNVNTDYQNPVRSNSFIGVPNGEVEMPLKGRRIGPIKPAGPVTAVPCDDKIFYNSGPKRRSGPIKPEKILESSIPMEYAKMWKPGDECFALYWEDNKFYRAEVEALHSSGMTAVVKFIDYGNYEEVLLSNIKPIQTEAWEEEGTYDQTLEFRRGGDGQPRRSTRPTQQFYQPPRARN
TDRD3 isoform 3 (Q9H7E2-2, form named): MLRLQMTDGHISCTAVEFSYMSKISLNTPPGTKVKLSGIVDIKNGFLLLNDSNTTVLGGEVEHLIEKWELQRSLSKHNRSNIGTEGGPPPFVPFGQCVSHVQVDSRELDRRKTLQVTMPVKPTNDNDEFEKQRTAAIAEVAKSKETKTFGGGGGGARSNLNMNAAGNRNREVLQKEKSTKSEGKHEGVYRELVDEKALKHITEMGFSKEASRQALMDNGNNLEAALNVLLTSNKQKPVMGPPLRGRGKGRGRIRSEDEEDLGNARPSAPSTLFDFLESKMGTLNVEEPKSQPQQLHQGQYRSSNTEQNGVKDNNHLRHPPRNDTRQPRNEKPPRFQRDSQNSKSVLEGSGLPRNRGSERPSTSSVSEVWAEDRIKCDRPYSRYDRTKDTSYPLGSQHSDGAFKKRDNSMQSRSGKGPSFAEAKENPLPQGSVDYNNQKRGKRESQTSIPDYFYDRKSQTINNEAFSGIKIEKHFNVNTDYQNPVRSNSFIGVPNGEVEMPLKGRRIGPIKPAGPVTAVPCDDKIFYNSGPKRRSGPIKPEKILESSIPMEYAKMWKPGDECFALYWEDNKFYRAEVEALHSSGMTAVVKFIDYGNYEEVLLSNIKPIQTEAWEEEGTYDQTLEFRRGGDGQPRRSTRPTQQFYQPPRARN

This assay concerns the target APOBEC3B (apolipoprotein B mRNA-editing enzyme catalytic polypeptide-like 3B) (human (in T-47D cells)) (UniProt Q9UH17). Description: co-IP.

These are yes or no findings as the source states them, for the method shown. In cells and extracts the contact can be indirect. Some entries that bind do so weakly or less than the wild type.

Regarding “TDRD3 isoform 1 (from UniProt Q9H7E2-3 1-744)”, the binding entry was “binds”. The result for “TDRD3 isoform 3 (from UniProt Q9H7E2-2 1-650)” reads “no binding”.
